Record: PubChem BioAssay AID652243 (Drosophila RNAi Screening Center, 2013)
In all, the deposit lists about 24,000 reagents; this is an unselected part of those that have a named target and a result. Of all reagents, 246 (1%) were called active. 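Plates not normalised; calls are printed but the firefly/Renilla ratio behind them is not deposited; fold cut for lowering reported inconsistently.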 Raw values vary from plate to plate and are shown uncorrected. The record does not give: the amount of reagent.

- Purpose: 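Knock-downs that decrease or increase androgen receptor reporter signal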 (primary screen)
- System: Drosophila S2R+ cells
- Reagent: long dsRNA against Drosophila genes
- Time to read-out: 72 h (48 h, then 24 h hormone)
- Conditions: synthetic androgen R1881 at 10 nM for 24 h
- Measured: 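Firefly light from an androgen-responsive reporter and Renilla control light per well, raw and unnormalised, for each of two replicates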
- Scale: firefly reporter light: higher = more light from androgen-responsive reporter; Renilla control light: higher = more constitutive control signal (cell number, transfection)
- Call rule: 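Across duplicate plates, a knock-down whose log firefly/Renilla ratio shifted a set fold down or up from the GFP/LacZ control mean was a hit; the downward cut appears as both 1.5 and 3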
- Meaning of the calls: active = hit: reporter lowered or raised; inactive = no hit

The first 3 entries as a preview:
firefly reporter light, replicate 1 | firefly reporter light, replicate 2 | Renilla control light, replicate 1 | Renilla control light, replicate 2 | Outcome | gene knocked down | DRSC id
2.41e5 | 2.54e5 | 2.25e6 | 1.73e6 | inactive | CG13049 (GeneID 39788) | DRSC09930
1.47e6 | 1.11e6 | 1.33e6 | 1.09e6 | inactive | CG13049 (GeneID 39788) | DRSC24850
2.13e5 | 3.10e5 | 1.91e6 | 2.68e6 | inactive | CG33181 (GeneID 318916) | DRSC17971

Results, from the start:
firefly reporter light, replicate 1 | firefly reporter light, replicate 2 | Renilla control light, replicate 1 | Renilla control light, replicate 2 | Outcome | gene knocked down | DRSC id
2.41e5 | 2.54e5 | 2.25e6 | 1.73e6 | inactive | CG13049 (GeneID 39788) | DRSC09930
1.47e6 | 1.11e6 | 1.33e6 | 1.09e6 | inactive | CG13049 (GeneID 39788) | DRSC24850
2.13e5 | 3.10e5 | 1.91e6 | 2.68e6 | inactive | CG33181 (GeneID 318916) | DRSC17971
7.22e5 | 5.79e5 | 2.76e6 | 1.66e6 | inactive | CG33181 (GeneID 318916) | DRSC22376
3.82e5 | 6.01e5 | 1.54e6 | 1.54e6 | inactive | CG33181 (GeneID 318916) | DRSC29457
1.79e5 | 1.88e5 | 1.99e6 | 1.87e6 | inactive | Sms (GeneID 39403) | DRSC10408
41294 | 53562 | 3.25e5 | 3.71e5 | inactive | RhoBTB (GeneID 40249) | DRSC11877
1.56e5 | 1.37e5 | 1.04e6 | 9.73e5 | inactive | sca (GeneID 36411) | DRSC07677
2.67e5 | 4.31e5 | 6.29e5 | 6.29e5 | inactive | sca (GeneID 36411) | DRSC29515
2.93e5 | 1.64e5 | 8.76e5 | 7.39e5 | inactive | CycE (GeneID 34924) | DRSC03295
1.58e5 | 1.49e5 | 1.75e6 | 1.70e6 | inactive | CycE (GeneID 34924) | DRSC03296
– | – | – | – | active | CycE (GeneID 34924) | DRSC37016
8.85e5 | 7.99e5 | 3.15e6 | 4.27e6 | inactive | Sr-CI (GeneID 33621) | DRSC00790
2.93e5 | 2.61e5 | 7.78e5 | 4.98e5 | inactive | Sr-CI (GeneID 33621) | DRSC23942
1.78e5 | 2.10e5 | 2.99e6 | 3.27e6 | inactive | grass (GeneID 43273) | DRSC15911
2.35e5 | 3.15e5 | 2.23e6 | 2.17e6 | inactive | Flad2 (GeneID 34759) | DRSC02531
4.03e5 | 3.03e5 | 5.22e5 | 5.17e5 | inactive | Flad2 (GeneID 34759) | DRSC27627
4.98e5 | 4.36e5 | 4.31e6 | 4.45e6 | inactive | CG9521 (GeneID 32414) | DRSC20196
1.37e5 | 1.75e5 | 1.61e6 | 1.90e6 | inactive | alrm (GeneID 43074) | DRSC14436
6.06e5 | 5.78e5 | 1.33e6 | 1.39e6 | inactive | CG34454 (GeneID 5740130) | DRSC37913
2.68e5 | 3.08e5 | 2.51e5 | 2.99e5 | inactive | Kank (GeneID 36668) | DRSC05513
1.41e6 | 1.61e6 | 2.40e6 | 2.77e6 | inactive | Kank (GeneID 36668) | DRSC05933
2.13e5 | 1.57e5 | 3.52e6 | 2.75e6 | inactive | vilya (GeneID 31264) | DRSC18588
4.81e5 | 3.86e5 | 3.58e6 | 3.26e6 | inactive | CG5162 (GeneID 32709) | DRSC19935
